Test results published in the supplement of paper PMC10849652.
Some of the results follow.

The chains behind the UniProt entries cited, without tags or fusion partners. Where a name states a change or a piece, a line headed by the entry shows the natural chain unless it says otherwise.
UniProt Q9H910: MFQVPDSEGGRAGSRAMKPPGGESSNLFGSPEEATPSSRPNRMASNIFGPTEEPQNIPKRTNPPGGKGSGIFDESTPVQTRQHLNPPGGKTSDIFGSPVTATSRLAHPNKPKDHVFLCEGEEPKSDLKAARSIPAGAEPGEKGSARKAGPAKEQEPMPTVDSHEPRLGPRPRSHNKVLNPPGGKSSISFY
UniProt Q2M2Z5: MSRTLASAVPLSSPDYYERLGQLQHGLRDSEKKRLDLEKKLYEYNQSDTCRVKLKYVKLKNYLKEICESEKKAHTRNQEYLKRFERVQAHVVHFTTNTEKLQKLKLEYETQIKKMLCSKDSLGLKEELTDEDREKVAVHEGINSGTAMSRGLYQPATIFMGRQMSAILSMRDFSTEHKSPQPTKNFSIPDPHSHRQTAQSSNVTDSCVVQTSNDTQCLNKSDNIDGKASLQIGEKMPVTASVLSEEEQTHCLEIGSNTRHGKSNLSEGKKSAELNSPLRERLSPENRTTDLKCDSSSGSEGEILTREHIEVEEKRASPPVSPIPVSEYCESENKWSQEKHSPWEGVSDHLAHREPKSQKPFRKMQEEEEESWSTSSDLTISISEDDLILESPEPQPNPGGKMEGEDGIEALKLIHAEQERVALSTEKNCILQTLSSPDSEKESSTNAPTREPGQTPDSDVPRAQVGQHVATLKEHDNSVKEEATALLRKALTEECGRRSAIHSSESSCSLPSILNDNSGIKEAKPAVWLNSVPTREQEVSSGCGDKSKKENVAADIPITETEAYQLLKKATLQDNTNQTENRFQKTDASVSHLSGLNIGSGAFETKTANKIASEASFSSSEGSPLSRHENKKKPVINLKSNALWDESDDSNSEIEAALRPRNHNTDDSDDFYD
UniProt Q15053: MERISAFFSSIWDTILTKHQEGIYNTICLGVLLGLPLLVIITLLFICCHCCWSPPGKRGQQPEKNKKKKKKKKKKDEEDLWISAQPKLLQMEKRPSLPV

What was measured:
Test in all cases: log2 fold change, soluble protein after heating vs DMSO (PISA); higher = thermal stabilisation; K562 cells, 10 uM, 30 min; active = over 0.2 and 3.5 SD of the protein, either way, in both replicates (recomputed)
[1] = compound: CN1CCN(c2nc(C3=C(c4c[nH]c5ccccc45)C(=O)NC3=O)c3ccccc3n2)CC1 [sotrastaurin]
Outline: (§1)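 Soluble protein was defined as the supernatant after 21,000xg for 90 min. It came from K562 cells at 2×10^6 cells/mL given 10 μM compound for 30 min, heated in aliquots for 3 min across 48°C-58°C, pooled, and extracted in PBS with 0.5% NP-40 at 4°C, and was quantified by TMTpro 16plex LC-MS/MS with equalised channel sums. Thermal stability against control samples, from duplicates, is reported as log2 fold change.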

[2] = compound: CN1CCc2c(c3ccccc3n2Cc2ccc(C(=O)NO)cc2)C1 [Tubastatin A]
Outline: as §1

[3] = compound: CNC(=O)C1=CC=CC=C1NC2=NC(=NC=C2Cl)NC3=C(C=C(C=C3)N4CCOCC4)OC
Outline: as §1

[4] = compound: CNC(=O)c1ccc(Nc2ncc(C(F)(F)F)c(NCc3nccnc3N(C)S(C)(=O)=O)n2)cc1 [defactinib]
Outline: as §1

[5] = compound: CNCc1ccc(-c2[nH]c3cc(F)cc4c3c2CCNC4=O)cc1 [rucaparib]
Outline: as §1

[6] = compound: COC(=O)N[C@@H](C)CNc1nccc(-c2cn(C(C)C)nc2-c2cc(Cl)cc(NS(C)(=O)=O)c2F)n1 [encorafenib]
Outline: as §1

[7] = compound: COC(=O)[C@H](CCSC)NC(=O)C1=C(C=C(C=C1)NC[C@H](CS)N)C2=CC=CC=C2
Outline: as §1

[8] = compound: COC1=CC=C(C=C1)CN2C=CC3=C2C=C(C=C3)C(=O)NO
Outline: as §1

[9] = compound: CON(C)C(=O)N1N=C(c2cc(F)ccc2F)S[C@@]1(CCCN)c1ccccc1 [filanesib]
Outline: as §1

[10] = compound: COc1cc(C(=O)O)ccc1NC(=O)[C@@H]1N[C@@H](CC(C)(C)C)[C@](C#N)(c2ccc(Cl)cc2F)[C@H]1c1cccc(Cl)c1F [idasanutlin]
Outline: as §1

[11] = compound: COc1cc(Nc2ncc3c(n2)-c2ccc(Cl)cc2C(c2c(F)cccc2OC)=NC3)ccc1C(=O)O [alisertib]
Outline: as §1

[12] = compound: COc1cc2nc(-c3cc(F)ccc3O)nc(N[C@@H]3CNC[C@H]3C(C)(C)O)c2cc1OC
Outline: as §1

[13] = compound: COc1cc2ncnc(Nc3ccc(F)c(Cl)c3)c2cc1OCCCN1CCOCC1 [gefitinib]
Outline: as §1

[14] = compound: COc1cccc2cc(-c3nc([C@H]4CC[C@H](C(=O)O)CC4)n4ncnc(N)c34)[nH]c12
Outline: as §1

[15] = compound: CS(=O)(=O)CCNCc1ccc(-c2ccc3ncnc(Nc4ccc(OCc5cccc(F)c5)c(Cl)c4)c3c2)o1 [lapatinib]
Outline: as §1

[16] = compound: CO[C@H]1C[C@@H]2CC[C@@H](C)[C@@](O)(O2)C(=O)C(=O)N2CCCC[C@H]2C(=O)O[C@H]([C@H](C)C[C@@H]2CC[C@H](n3cnnn3)[C@H](OC)C2)CC(=O)[C@H](C)/C=C(\C)[C@@H](O)[C@@H](OC)C(=O)[C@H](C)C[C@H](C)/C=C/C=C/C=C/1C [zotarolimus]
Outline: as §1

[17] = compound: CS(=O)(=O)N1CCN(Cc2cc3nc(-c4cccc5[nH]ncc45)nc(N4CCOCC4)c3s2)CC1 [pictilisib]
Outline: as §1

[18] = compound: CN1CC[C@H](c2c(O)cc(O)c3c(=O)cc(-c4ccccc4Cl)oc23)[C@H](O)C1 [alvocidib]
Outline: as §1

Measured: log2 fold change

JPT2 isoform 2 (UniProt Q9H910)
inactive: [1] 0.114 | [2] 0.051 | [3] -0.056 | [4] 0.014 | [5] 0.126 | [6] -0.082 | [7] -0.055 | [8] -0.05 | [9] -0.118 | [10] 0.288 | [11] 0.111 | [12] 0.046 | [13] 0.091 | [14] -0.013 | [15] -0.072

KIZ (UniProt Q2M2Z5)
inactive: [5] -0.027 | [6] -0.038 | [8] -0.008 | [16] 0.269 | [10] -0.019 | [12] -0.064 | [15] 0.066 | [17] -0.215

KIAA0040 (UniProt Q15053)
inactive: [18] 0.078 | [3] -0.194 | [4] -0.034 | [7] 0.022 | [16] -0.124 | [10] 0.101 | [11] -0.024 | [13] -0.003 | [14] 0.075
